{"source": "PubChem BioAssay AID1224830, NIAID | 2016", "assay": "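Regulators of TLR4 signalling towards TNF-alpha in macrophage-like cells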 (primary screen)", "system": "human THP-1 monocytic leukaemia cells, TNF dual-luciferase reporter clone, PMA-differentiated to macrophage-like cells", "knock-down reagent": "siRNA pool against human genes, 50 nM", "time to read-out": "LPS for 4 h, given about 3 days after siRNA transfection", "treatment": "bacterial LPS (TLR4 ligand), 10 ng/ml", "read-out": "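Ratio of firefly to renilla light, scaled to the plate median and expressed as a robust z-score per replicate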", "reading the numbers": "TNF reporter robust z-score: higher = stronger TNF reporter response to LPS", "active means": "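Each well counts as active if its z-score is over 2.8 or under -1.5; controls are left without a call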", "note": "The deposit covers about 18,000 reagents; this is a part drawn at random. Of all reagents, about 2,900 (16%) are marked active. 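Calls are made per well; low scores hint the gene aids the LPS response, high scores that it dampens it.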 Entries without a mark were called inactive. Repeated entries: four replicate wells of each siRNA pool."}
{"gene": "VCX3B", "TNF reporter robust z-score": -1.23}
{"gene": "VCX3B", "TNF reporter robust z-score": -0.81}
{"gene": "VCX3B", "TNF reporter robust z-score": -0.54}
{"gene": "VCX3B", "TNF reporter robust z-score": -1.15}
{"gene": "FCRL6", "TNF reporter robust z-score": 0.6}
{"gene": "FCRL6", "TNF reporter robust z-score": 0.67}
{"gene": "FCRL6", "TNF reporter robust z-score": 1.45}
{"gene": "FCRL6", "TNF reporter robust z-score": 1.35}
{"gene": "EGLN2", "TNF reporter robust z-score": -0.56}
{"gene": "EGLN2", "TNF reporter robust z-score": 0.29}
{"gene": "EGLN2", "TNF reporter robust z-score": 0.34}
{"gene": "GDF15", "TNF reporter robust z-score": -0.17}
{"gene": "GDF15", "TNF reporter robust z-score": 0.37}
{"gene": "GDF15", "TNF reporter robust z-score": 0.04}
{"gene": "GDF15", "TNF reporter robust z-score": -0.57}
{"gene": "HDIP1", "TNF reporter robust z-score": -0.4}
{"gene": "HDIP1", "TNF reporter robust z-score": -0.05}
{"gene": "HDIP1", "TNF reporter robust z-score": -0.02}
{"gene": "HDIP1", "TNF reporter robust z-score": -0.11}
{"gene": "LSM14B", "TNF reporter robust z-score": -0.98}
{"gene": "LSM14B", "TNF reporter robust z-score": -0.94}
{"gene": "LSM14B", "TNF reporter robust z-score": -0.52}
{"gene": "LSM14B", "TNF reporter robust z-score": -0.3}
{"gene": "SLC37A3", "TNF reporter robust z-score": 0.19}
{"gene": "SLC37A3", "TNF reporter robust z-score": -0.1}
{"gene": "SLC37A3", "TNF reporter robust z-score": -0.75}
{"gene": "SLC37A3", "TNF reporter robust z-score": 0.76}
{"gene": "OAT", "TNF reporter robust z-score": -1.2}
{"gene": "OAT", "TNF reporter robust z-score": -0.11}
{"gene": "OAT", "TNF reporter robust z-score": -0.49}
{"gene": "OAT", "TNF reporter robust z-score": -0.63}

4 entries from above, set out differently.
GDF15 | TNF reporter robust z-score: 0.37
GDF15 | TNF reporter robust z-score: 0.04
GDF15 | TNF reporter robust z-score: -0.57
HDIP1 | TNF reporter robust z-score: -0.4

More entries follow.
{"gene": "LGI2", "TNF reporter robust z-score": -0.93}
{"gene": "LGI2", "TNF reporter robust z-score": -0.91}
{"gene": "LGI2", "TNF reporter robust z-score": -1.17}
{"gene": "LGI2", "TNF reporter robust z-score": -1.28}
{"gene": "HSPG2", "TNF reporter robust z-score": -0.62}
{"gene": "HSPG2", "TNF reporter robust z-score": 0.25}
{"gene": "HSPG2", "TNF reporter robust z-score": -0.25}
{"gene": "HSPG2", "TNF reporter robust z-score": -0.33}
{"gene": "CEP128", "TNF reporter robust z-score": 1.32}
{"gene": "CEP128", "TNF reporter robust z-score": -0.01}
{"gene": "CEP128", "TNF reporter robust z-score": -1.21}
{"gene": "CEP128", "TNF reporter robust z-score": 0.69}
{"gene": "OR2B6", "TNF reporter robust z-score": 0.84}
{"gene": "OR2B6", "TNF reporter robust z-score": 1.26}
{"gene": "OR2B6", "TNF reporter robust z-score": -0.5}
{"gene": "OR2B6", "TNF reporter robust z-score": -1.26}
